# Experimental data as given in publication PMC4619786.
# Results are given in words; binding and its absence hold for the method and conditions named. Binding seen in cells or lysates may run through a third protein. Some binding calls cover weakened binding; strength is not graded here.
# T1: podocin (mouse (endogenous in TM4)) (UniProt Q91X05)
# T1 sequence: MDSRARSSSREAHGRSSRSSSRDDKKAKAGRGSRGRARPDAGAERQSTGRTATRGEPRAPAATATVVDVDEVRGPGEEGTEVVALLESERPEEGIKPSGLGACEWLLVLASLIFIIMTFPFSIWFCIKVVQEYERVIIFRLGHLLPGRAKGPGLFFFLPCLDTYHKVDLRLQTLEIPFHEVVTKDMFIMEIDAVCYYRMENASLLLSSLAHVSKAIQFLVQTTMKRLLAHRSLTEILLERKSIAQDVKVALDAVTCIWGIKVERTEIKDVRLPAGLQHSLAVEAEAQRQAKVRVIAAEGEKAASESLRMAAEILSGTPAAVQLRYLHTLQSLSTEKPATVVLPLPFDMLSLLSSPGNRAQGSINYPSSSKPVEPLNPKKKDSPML
# T2: nephrin (mouse (endogenous in TM4)) (UniProt Q9QZS7)
# T2 sequence: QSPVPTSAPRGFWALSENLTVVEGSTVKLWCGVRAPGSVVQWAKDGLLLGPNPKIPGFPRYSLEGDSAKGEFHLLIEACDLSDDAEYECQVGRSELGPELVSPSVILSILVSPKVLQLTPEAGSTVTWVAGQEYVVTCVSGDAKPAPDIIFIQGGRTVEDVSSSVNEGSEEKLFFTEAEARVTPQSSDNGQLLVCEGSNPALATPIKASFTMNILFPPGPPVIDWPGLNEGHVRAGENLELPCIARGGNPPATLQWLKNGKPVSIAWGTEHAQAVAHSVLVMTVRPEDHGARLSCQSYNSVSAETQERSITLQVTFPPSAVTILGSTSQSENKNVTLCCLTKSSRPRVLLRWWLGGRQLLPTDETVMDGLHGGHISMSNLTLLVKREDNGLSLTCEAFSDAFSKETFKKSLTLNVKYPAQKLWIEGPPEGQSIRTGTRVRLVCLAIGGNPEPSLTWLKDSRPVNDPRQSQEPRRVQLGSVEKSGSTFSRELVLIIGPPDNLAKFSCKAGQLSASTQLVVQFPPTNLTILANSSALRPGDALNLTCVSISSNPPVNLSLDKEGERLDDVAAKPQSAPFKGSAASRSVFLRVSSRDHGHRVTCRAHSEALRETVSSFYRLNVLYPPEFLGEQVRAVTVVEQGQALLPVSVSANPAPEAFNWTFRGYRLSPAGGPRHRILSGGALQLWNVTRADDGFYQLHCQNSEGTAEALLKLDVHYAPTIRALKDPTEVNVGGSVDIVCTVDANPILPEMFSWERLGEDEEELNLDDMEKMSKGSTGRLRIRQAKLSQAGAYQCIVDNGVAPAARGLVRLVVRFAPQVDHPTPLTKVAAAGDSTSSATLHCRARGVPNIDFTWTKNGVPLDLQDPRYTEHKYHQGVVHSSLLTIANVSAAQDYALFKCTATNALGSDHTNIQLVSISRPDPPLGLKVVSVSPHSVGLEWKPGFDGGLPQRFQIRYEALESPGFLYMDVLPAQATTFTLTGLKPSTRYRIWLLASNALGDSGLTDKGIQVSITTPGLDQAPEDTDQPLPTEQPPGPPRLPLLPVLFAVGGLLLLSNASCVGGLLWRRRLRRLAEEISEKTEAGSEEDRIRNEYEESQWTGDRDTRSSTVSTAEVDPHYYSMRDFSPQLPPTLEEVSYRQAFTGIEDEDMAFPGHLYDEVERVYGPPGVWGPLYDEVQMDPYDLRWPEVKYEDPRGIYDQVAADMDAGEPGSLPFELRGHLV
# Columns and labels:
# [1] = biological target: T1, podocin (mouse (endogenous in TM4)); assay: co-IP; whole-cell lysates of TM4 cells, precleared with protein G-plus-agarose beads at 4°C for 1 hour; immunoprecipitated with antipodocin or nephrin antibody and blotted with antinephrin or podocin antibody, respectively
# [2] = biological target: T2, nephrin (mouse (endogenous in TM4)); assay: as above
Binder,binding [1],binding [2]
"nephrin (protein, UniProt Q9QZS7 37-1256) QSPVPTSAPRGFWALSENLTVVEGSTVKLWCGVRAPGSVVQWAKDGLLLGPNPKIPGFPRYSLEGDSAKGEFHLLIEACDLSDDAEYECQVGRSELGPELVSPSVILSILVSPKVLQLTPEAGSTVTWVAGQEYVVTCVSGDAKPAPDIIFIQGGRTVEDVSSSVNEGSEEKLFFTEAEARVTPQSSDNGQLLVCEGSNPALATPIKASFTMNILFPPGPPVIDWPGLNEGHVRAGENLELPCIARGGNPPATLQWLKNGKPVSIAWGTEHAQAVAHSVLVMTVRPEDHGARLSCQSYNSVSAETQERSITLQVTFPPSAVTILGSTSQSENKNVTLCCLTKSSRPRVLLRWWLGGRQLLPTDETVMDGLHGGHISMSNLTLLVKREDNGLSLTCEAFSDAFSKETFKKSLTLNVKYPAQKLWIEGPPEGQSIRTGTRVRLVCLAIGGNPEPSLTWLKDSRPVNDPRQSQEPRRVQLGSVEKSGSTFSRELVLIIGPPDNLAKFSCKAGQLSASTQLVVQFPPTNLTILANSSALRPGDALNLTCVSISSNPPVNLSLDKEGERLDDVAAKPQSAPFKGSAASRSVFLRVSSRDHGHRVTCRAHSEALRETVSSFYRLNVLYPPEFLGEQVRAVTVVEQGQALLPVSVSANPAPEAFNWTFRGYRLSPAGGPRHRILSGGALQLWNVTRADDGFYQLHCQNSEGTAEALLKLDVHYAPTIRALKDPTEVNVGGSVDIVCTVDANPILPEMFSWERLGEDEEELNLDDMEKMSKGSTGRLRIRQAKLSQAGAYQCIVDNGVAPAARGLVRLVVRFAPQVDHPTPLTKVAAAGDSTSSATLHCRARGVPNIDFTWTKNGVPLDLQDPRYTEHKYHQGVVHSSLLTIANVSAAQDYALFKCTATNALGSDHTNIQLVSISRPDPPLGLKVVSVSPHSVGLEWKPGFDGGLPQRFQIRYEALESPGFLYMDVLPAQATTFTLTGLKPSTRYRIWLLASNALGDSGLTDKGIQVSITTPGLDQAPEDTDQPLPTEQPPGPPRLPLLPVLFAVGGLLLLSNASCVGGLLWRRRLRRLAEEISEKTEAGSEEDRIRNEYEESQWTGDRDTRSSTVSTAEVDPHYYSMRDFSPQLPPTLEEVSYRQAFTGIEDEDMAFPGHLYDEVERVYGPPGVWGPLYDEVQMDPYDLRWPEVKYEDPRGIYDQVAADMDAGEPGSLPFELRGHLV",binds,
"podocin (protein, UniProt Q91X05 1-385) MDSRARSSSREAHGRSSRSSSRDDKKAKAGRGSRGRARPDAGAERQSTGRTATRGEPRAPAATATVVDVDEVRGPGEEGTEVVALLESERPEEGIKPSGLGACEWLLVLASLIFIIMTFPFSIWFCIKVVQEYERVIIFRLGHLLPGRAKGPGLFFFLPCLDTYHKVDLRLQTLEIPFHEVVTKDMFIMEIDAVCYYRMENASLLLSSLAHVSKAIQFLVQTTMKRLLAHRSLTEILLERKSIAQDVKVALDAVTCIWGIKVERTEIKDVRLPAGLQHSLAVEAEAQRQAKVRVIAAEGEKAASESLRMAAEILSGTPAAVQLRYLHTLQSLSTEKPATVVLPLPFDMLSLLSSPGNRAQGSINYPSSSKPVEPLNPKKKDSPML",,binds
